Reference: article PMC7507479
These are yes or no findings as the source states them, for the method shown. Binding seen in cells or lysates may run through a third protein. Some entries that bind do so weakly or less than the wild type.

Protein sequences, listed by entry. Tags and fused reporters are not part of them.
UniProt P46937: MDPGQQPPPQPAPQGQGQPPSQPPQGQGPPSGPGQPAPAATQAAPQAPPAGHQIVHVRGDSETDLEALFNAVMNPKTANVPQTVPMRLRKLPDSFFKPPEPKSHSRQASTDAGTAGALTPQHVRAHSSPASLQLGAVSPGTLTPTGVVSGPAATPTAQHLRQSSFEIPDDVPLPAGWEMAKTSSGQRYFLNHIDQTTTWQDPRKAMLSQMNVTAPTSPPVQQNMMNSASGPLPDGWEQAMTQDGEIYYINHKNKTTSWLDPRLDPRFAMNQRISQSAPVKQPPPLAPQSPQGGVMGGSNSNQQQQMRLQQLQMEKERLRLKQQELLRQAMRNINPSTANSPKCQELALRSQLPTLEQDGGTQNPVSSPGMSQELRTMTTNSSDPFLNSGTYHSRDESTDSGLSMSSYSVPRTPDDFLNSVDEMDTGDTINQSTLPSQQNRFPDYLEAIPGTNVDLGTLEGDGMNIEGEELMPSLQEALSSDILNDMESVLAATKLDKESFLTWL

Target: YAP (human (endogenous in Huh7, Huh7-H, HCCLM3, HCCLM3-H)) (UniProt P46937)
Assay: co-IP; cell lysates in IP lysis buffer mixed with specific antibodies at 4°C, beads 2 h, Western blot; normal IgG as control; Huh7 and HCCLM3 cells (with or without ASMTL-AS1 overexpression), Huh7-H and HCCLM3-H cells (with or without ASMTL-AS1 shRNA); antibody used to precipitate not stated

B1: NLK (enzyme, UniProt Q9UBE8 1-527)
chain: MSLCGARANAKMMAAYNGGTSAAAAGHHHHHHHHLPHLPPPHLHHHHHPQHHLHPGSAAAVHPVQQHTSSAAAAAAAAAAAAAMLNPGQQQPYFPSPAPGQAPGPAAAAPAQVQAAAAATVKAHHHQHSHHPQQQLDIEPDRPIGYGAFGVVWSVTDPRDGKRVALKKMPNVFQNLVSCKRVFRELKMLCFFKHDNVLSALDILQPPHIDYFEEIYVVTELMQSDLHKIIVSPQPLSSDHVKVFLYQILRGLKYLHSAGILHRDIKPGNLLVNSNCVLKICDFGLARVEELDESRHMTQEVVTQYYRAPEILMGSRHYSNAIDIWSVGCIFAELLGRRILFQAQSPIQQLDLITDLLGTPSLEAMRTACEGAKAHILRGPHKQPSLPVLYTLSSQATHEAVHLLCRMLVFDPSKRISAKDALAHPYLDEGRLRYHTCMCKCCFSTSTGRVYTSDFEPVTNPKFDDTFEKNLSSVRQVKEIIHQFILEQQKGNRVPLCINPQSAAFKSFISSTVAQPSEMPPSPLVWE
  binding: binds
